Results are given in words; binding and its absence hold for the method and conditions named. Binding seen in cells or lysates may run through a third protein. Some binding calls cover weakened binding; strength is not graded here.
How the values were obtained:
[1] = target: Toll-like receptor 5 (mouse (endogenous in peritoneal macrophages)) (UniProt Q9JLF7); test: co-IP; lysates of mouse peritoneal macrophages (aged; WT, Cav1-/- and Myd88-/-), with or without Vv-FlaB stimulation for 12 h; incubated with protein G-Sepharose beads and anti-Cav1, anti-TLR5 or anti-MyD88 antibodies; Western blotting
[2] = target: T1, caveolin-1 (mouse (endogenous in peritoneal macrophages)) (UniProt P49817); test: as above
T1 sequence: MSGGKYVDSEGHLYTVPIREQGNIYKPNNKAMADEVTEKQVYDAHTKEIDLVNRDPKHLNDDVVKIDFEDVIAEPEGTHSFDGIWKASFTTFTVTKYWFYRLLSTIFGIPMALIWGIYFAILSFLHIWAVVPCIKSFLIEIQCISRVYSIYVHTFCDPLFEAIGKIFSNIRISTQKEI

The chains behind the UniProt entries cited, without tags or fusion partners. Residues count along the entry.
UniProt Q9JLF7, residues 27-859: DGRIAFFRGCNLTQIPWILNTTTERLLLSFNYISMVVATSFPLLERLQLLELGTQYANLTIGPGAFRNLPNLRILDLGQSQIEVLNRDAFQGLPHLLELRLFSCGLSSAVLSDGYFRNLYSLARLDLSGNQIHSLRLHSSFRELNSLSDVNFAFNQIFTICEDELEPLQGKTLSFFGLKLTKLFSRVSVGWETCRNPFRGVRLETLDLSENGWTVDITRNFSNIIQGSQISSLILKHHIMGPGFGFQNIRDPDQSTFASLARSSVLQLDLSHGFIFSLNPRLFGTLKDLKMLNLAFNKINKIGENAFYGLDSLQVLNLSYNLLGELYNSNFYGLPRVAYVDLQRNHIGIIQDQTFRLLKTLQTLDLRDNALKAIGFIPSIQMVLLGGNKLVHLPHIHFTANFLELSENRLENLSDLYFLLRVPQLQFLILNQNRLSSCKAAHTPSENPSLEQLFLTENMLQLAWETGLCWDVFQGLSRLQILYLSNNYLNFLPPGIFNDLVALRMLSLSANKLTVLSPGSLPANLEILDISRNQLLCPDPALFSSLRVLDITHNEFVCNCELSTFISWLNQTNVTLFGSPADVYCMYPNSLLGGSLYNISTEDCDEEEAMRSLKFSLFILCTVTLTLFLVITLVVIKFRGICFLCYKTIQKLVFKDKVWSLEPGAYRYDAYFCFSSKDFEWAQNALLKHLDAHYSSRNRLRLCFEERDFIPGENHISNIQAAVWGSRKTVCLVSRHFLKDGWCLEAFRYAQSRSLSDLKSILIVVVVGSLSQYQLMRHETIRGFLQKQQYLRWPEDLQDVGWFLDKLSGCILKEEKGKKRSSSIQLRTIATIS
UniProt P22366: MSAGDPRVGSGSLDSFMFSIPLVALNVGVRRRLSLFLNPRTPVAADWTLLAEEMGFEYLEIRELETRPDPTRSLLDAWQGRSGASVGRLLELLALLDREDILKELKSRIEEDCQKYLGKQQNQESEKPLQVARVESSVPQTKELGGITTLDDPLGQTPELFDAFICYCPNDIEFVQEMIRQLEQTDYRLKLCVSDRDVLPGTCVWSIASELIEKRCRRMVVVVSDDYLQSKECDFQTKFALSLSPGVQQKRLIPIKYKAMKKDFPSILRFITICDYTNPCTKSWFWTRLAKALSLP

Row | binding [1] | Substance | binding [2]
1 | binds | MyD88 (from UniProt P22366 1-296) | 
2 |  | Toll-like receptor 5 (from UniProt Q9JLF7 27-859) | binds

Reference: publication PMC4568978
